Measured values taken from publication PMC7261193, “The ancillary N-terminal region of the yeast AP-1 transcription factor Yap8 contributes to its DNA binding specificity”.
Where a chain is given by its changes, count along the chain named. Construct, isoform or probe ends are uncertain for at least one entry. For some assays here: A negative result means that nothing was seen under these conditions. For some assays here: At least one verdict was read from the data and is not stated in words by the source. For some assays here: Protein sequences can lack the tags named with them. For some assays here: Weaker means in comparison with the reference protein, sequence or condition of that experiment.

Columns and labels:
Experiment in all cases: EMSA
[1] = biological target: T1, GST-Yap8 WT (Saccharomyces cerevisiae) (UniProt Q06596); settings: Biotin EMSA: LightShift 1x buffer, 50 ng poly(dI-dC), 2.5% glycerol, 0.05% NP-40, 5 mM MgCl2, 20 fmol probe, RT 20 min. 32P EMSA: 10 mM Tris-HCl pH 8.0, 50 mM NaCl, recombinant protein, protein details: GST (N-term)
T1 sequence (looked up, limits assumed): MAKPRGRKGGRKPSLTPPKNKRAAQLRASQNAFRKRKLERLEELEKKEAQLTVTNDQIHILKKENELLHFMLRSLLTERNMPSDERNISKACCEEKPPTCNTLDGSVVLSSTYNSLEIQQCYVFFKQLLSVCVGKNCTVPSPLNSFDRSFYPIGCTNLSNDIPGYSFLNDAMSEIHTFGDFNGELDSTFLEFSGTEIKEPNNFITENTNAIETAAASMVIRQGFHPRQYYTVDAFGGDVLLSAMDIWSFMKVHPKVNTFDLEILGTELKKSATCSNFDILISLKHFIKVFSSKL

[2] = biological target: GST-Yap8-7aa A23T,L26N,S29A,N31R,K35E,L37E,E39R (Saccharomyces cerevisiae) (UniProt Q06596); settings: Biotin EMSA: LightShift 1x buffer, 50 ng poly(dI-dC), 2.5% glycerol, 0.05% NP-40, 5 mM MgCl2, 20 fmol probe, RT 20 min. 32P EMSA: 10 mM Tris-HCl pH 8.0, 50 mM NaCl, recombinant protein, protein details: GST (N-term)
[3] = biological target: GST-Yap8-8aa N20Q,A23T,L26N,S29A,N31R,K35E,L37E,E39R (Saccharomyces cerevisiae) (UniProt Q06596); settings: Biotin EMSA: LightShift 1x buffer, 50 ng poly(dI-dC), 2.5% glycerol, 0.05% NP-40, 5 mM MgCl2, 20 fmol probe, RT 20 min. 32P EMSA: 10 mM Tris-HCl pH 8.0, 50 mM NaCl, recombinant protein, protein details: GST (N-term)
[4] = biological target: T2, GST-Yap8-4aa A23T,L26N,S29A,N31R (Saccharomyces cerevisiae) (UniProt Q06596); settings: 100 ng protein needed; Biotin EMSA: LightShift 1x buffer, 50 ng poly(dI-dC), 2.5% glycerol, 0.05% NP-40, 5 mM MgCl2, 20 fmol probe, RT 20 min. 32P EMSA: 10 mM Tris-HCl pH 8.0, 50 mM NaCl; recombinant protein; protein details: GST (N-term); label: 32P 5'
T2 sequence (looked up, limits assumed): T1 sequence (looked up, limits assumed) with A23T, L26N, S29A, N31R

[5] = biological target: T3, GST-Yap8-R11A (Saccharomyces cerevisiae) (UniProt Q06596); settings: Biotin EMSA: LightShift 1x buffer, 50 ng poly(dI-dC), 2.5% glycerol, 0.05% NP-40, 5 mM MgCl2, 20 fmol probe, RT 20 min. 32P EMSA: 10 mM Tris-HCl pH 8.0, 50 mM NaCl; recombinant protein; protein details: GST (N-term); label: 5' biotin (Fig 3A, 5, 8B)
T3 sequence (looked up, limits assumed): T1 sequence (looked up, limits assumed) with R11A

[6] = biological target: T4, GST-Yap8-R7A (Saccharomyces cerevisiae) (UniProt Q06596); settings: Biotin EMSA: LightShift 1x buffer, 50 ng poly(dI-dC), 2.5% glycerol, 0.05% NP-40, 5 mM MgCl2, 20 fmol probe, RT 20 min. 32P EMSA: 10 mM Tris-HCl pH 8.0, 50 mM NaCl; recombinant protein; protein details: GST (N-term); label: 5' biotin (Fig 3A, 5, 8B)
T4 sequence (looked up, limits assumed): T1 sequence (looked up, limits assumed) with R7A

[7] = biological target: T5, GST-Yap8-Q25A (Saccharomyces cerevisiae) (UniProt Q06596); settings: Biotin EMSA: LightShift 1x buffer, 50 ng poly(dI-dC), 2.5% glycerol, 0.05% NP-40, 5 mM MgCl2, 20 fmol probe, RT 20 min. 32P EMSA: 10 mM Tris-HCl pH 8.0, 50 mM NaCl; recombinant protein; protein details: GST (N-term); label: 5' biotin (Fig 3A, 5, 8B)
T5 sequence (looked up, limits assumed): T1 sequence (looked up, limits assumed) with Q25A

[8] = biological target: T6, GST-Yap8-N20A (Saccharomyces cerevisiae) (UniProt Q06596); settings: Biotin EMSA: LightShift 1x buffer, 50 ng poly(dI-dC), 2.5% glycerol, 0.05% NP-40, 5 mM MgCl2, 20 fmol probe, RT 20 min. 32P EMSA: 10 mM Tris-HCl pH 8.0, 50 mM NaCl, recombinant protein, protein details: GST (N-term)
T6 sequence (looked up, limits assumed): T1 sequence (looked up, limits assumed) with N20A

[9] = biological target: T7, GST-Yap8-R7K (Saccharomyces cerevisiae) (UniProt Q06596); settings: Biotin EMSA: LightShift 1x buffer, 50 ng poly(dI-dC), 2.5% glycerol, 0.05% NP-40, 5 mM MgCl2, 20 fmol probe, RT 20 min. 32P EMSA: 10 mM Tris-HCl pH 8.0, 50 mM NaCl; recombinant protein; protein details: GST (N-term); label: 5' biotin (Fig 3A, 5, 8B)
T7 sequence (looked up, limits assumed): T1 sequence (looked up, limits assumed) with R7K

[10] = biological target: T8, GST-Yap8-N20Q (Saccharomyces cerevisiae) (UniProt Q06596); settings: no stable binding; Biotin EMSA: LightShift 1x buffer, 50 ng poly(dI-dC), 2.5% glycerol, 0.05% NP-40, 5 mM MgCl2, 20 fmol probe, RT 20 min. 32P EMSA: 10 mM Tris-HCl pH 8.0, 50 mM NaCl; recombinant protein; protein details: GST (N-term); label: 32P 5'
T8 sequence (looked up, limits assumed): T1 sequence (looked up, limits assumed) with N20Q

[11] = 100 ng protein needed, label: 32P 5'
[12] = label: 5' biotin (Fig 3A, 5, 8B)
[13] = no stable binding, label: 32P 5'

## TCTTAATTATCTTTTTGTTTGATTAATAATCAACCGGAGCGGCAACGCTCC (double strand) [ACR3-M2]
[1]; label: 5' biotin
  binding result: binds more weakly

## TTCTGCCCAACGACGGCTGCCATTAGTCAGCATGGCGCGCACGTGACTACA (double strand) [GSH1short]
[2]; [11]
  binding result: binds more weakly
[3]; [11]
  binding result: binds more weakly
[4]
  binding result: binds more weakly

## TCTTAATTATCTTTTTGTTTGATTAATAATCAACTTTAGCGGCAACGCTCC (double strand) [ACR3short (WT)]
[5]
  binding result: binds more weakly
[2]; [12]
  binding result: binds
[1]; [12]
  binding result: binds
[6]
  binding result: binds more weakly
[7]
  binding result: binds more weakly
[3]; [12]
  binding result: binds more weakly
[8]; [12]
  binding result: binds more weakly
[9]
  binding result: binds more weakly

## TCTTAATTATCTTTGCGGCTGATTAATAATCAACCGGAGCGGCAACGCTCC (double strand) [ACR3-M3]
[1]; label: 5' biotin
  binding result: binds more weakly

## TCTTAATTATCTTTTTGTTTGATTAATAATCAACTTTAGCGGCAACGCTCC (double strand) [ACR3short (32P)]
[1]; stable with 10 ng protein, label: 32P 5'
  binding result: binds

## ATTGTTTATACTCTTAGTAAAGGATGCTCCCTACAAGGTGGCTCTTTTCTTACTAAGCGCGTTCAGTTTC (double strand) [TRX2short]
[2]; [13]
  binding result: no binding
[1]; [13]
  binding result: no binding
[10]
  binding result: no binding
[3]; [13]
  binding result: no binding
[8]; [13]
  binding result: no binding

## TCTTAATTATCTTTGCGGCTGATTAATAATCAACTTTAGCGGCAACGCTCC (double strand) [ACR3-M1]
[1]; label: 5' biotin
  binding result: binds more weakly
